Data as given in PubChem BioAssay AID1224827 (NIAID, 2016)

Test: 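Retest primary hits on a TNF reporter with six siRNAs per gene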 (follow-up of hits)
System: RAW264.7 G9 mouse macrophage reporter clone
Reagent: single siRNA against mouse genes, 100 nM siRNA
Duration: siRNA for 2 days, then LPS about 16 h
Treatment: bacterial lipopolysaccharide (LPS), 10 ng/ml, cells fixed after overnight (about 16 h) stimulation
Read-out: 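Imaged nuclear TNF reporter intensity, background removed, scaled per plate and to non-targeting control wells, as z-scores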
Scale: TNF reporter z-score, mean and TNF reporter z-score: higher = stronger Tnf promoter reporter signal; gene median z, three same-vendor siRNAs: higher = stronger Tnf reporter signal for the gene
Hit rule: 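An siRNA is called active when its mean z-score over replicates is at least +2 or at most -2; control wells get no call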
Shown is a random part of about 3,800 reagents tested. Of all reagents, about 2,200 (57%) are marked active. 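Active means a strong reporter change in either direction; calls are per siRNA, not per gene; qiagen siRNAs gave weaker effects.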 The numbers tell different reagents against one gene apart.

no.	target	siRNA no.	TNF reporter z-score, mean	gene median z, three same-vendor siRNAs	TNF reporter z-score, repeat 1	TNF reporter z-score, repeat 2	outcome
1	Pofut1 (protein O-fucosyltransferase 1)	1	-0.0782	-3.89	-0.503	0.346	inactive
2	Pofut1 (protein O-fucosyltransferase 1)	2	-3.89	-3.89	-4.21	-3.57	active
3	Pofut1 (protein O-fucosyltransferase 1)	3	-5.9	-3.89	-5.78	-6.01	active
4	Pofut1 (protein O-fucosyltransferase 1)	4	1.57	-2.22	2.95	0.178	inactive
5	Pofut1 (protein O-fucosyltransferase 1)	5	-2.22	-2.22	-1.85	-2.59	active
6	Pofut1 (protein O-fucosyltransferase 1)	6	-4.79	-2.22	-5.79	-3.8	active
7	Lhfpl4 (lipoma HMGIC fusion partner-like protein 4)	1	-2.25	-3.72	-2.4	-2.11	active
8	Lhfpl4 (lipoma HMGIC fusion partner-like protein 4)	2	-3.94	-3.72	-4.43	-3.44	active
9	Lhfpl4 (lipoma HMGIC fusion partner-like protein 4)	3	-4.52	-3.72	-3.99	-5.05	active
10	Lhfpl4 (lipoma HMGIC fusion partner-like protein 4)	4	3.08	1.08	4.51	1.65	active
11	Lhfpl4 (lipoma HMGIC fusion partner-like protein 4)	5	2.48	1.08	4.45	0.509	active
12	Lhfpl4 (lipoma HMGIC fusion partner-like protein 4)	6	-0.952	1.08	0.213	-2.12	inactive
13	Wls (wntless WNT ligand secretion mediator)	1	-1.96	-3.46	-3.22	-0.695	inactive
14	Wls (wntless WNT ligand secretion mediator)	2	-3.44	-3.46	-3.19	-3.7	active
15	Wls (wntless WNT ligand secretion mediator)	3	-4.31	-3.46	-4.39	-4.23	active
16	Wls (wntless WNT ligand secretion mediator)	4	2.48	0.844	3.94	1.02	active
17	Wls (wntless WNT ligand secretion mediator)	5	1.39	0.844	3.27	-0.501	inactive
18	Wls (wntless WNT ligand secretion mediator)	6	-1.78	0.844	0.663	-4.23	inactive
19	Hfe (homeostatic iron regulator)	1	10.8	-3.3	8.14	13.5	active
20	Hfe (homeostatic iron regulator)	2	-3.52	-3.3	-3.63	-3.4	active
21	Hfe (homeostatic iron regulator)	3	-3.81	-3.3	-3.2	-4.42	active
22	Hfe (homeostatic iron regulator)	4	4.46	0.119	8.67	0.249	active
23	Hfe (homeostatic iron regulator)	5	-0.138	0.119	1.19	-1.47	inactive
24	Hfe (homeostatic iron regulator)	6	-0.885	0.119	-1.76	-0.0123	inactive
25	Gm10283 (predicted gene 10283)	1	-0.371	-3.85	-3.19	2.45	inactive
26	Gm10283 (predicted gene 10283)	2	-3.85	-3.85	-3.53	-4.18	active
27	Gm10283 (predicted gene 10283)	3	-5.93	-3.85	-4.46	-7.41	active
28	Gm10283 (predicted gene 10283)	4	2.67	1.28	4.02	1.32	active
29	Gm10283 (predicted gene 10283)	5	2.87	1.28	4.79	0.942	active
30	Gm10283 (predicted gene 10283)	6	0.351	1.28	1.24	-0.541	inactive

Sorted by “gene median z, three same-vendor siRNAs” (high to low): some entries from above.
target	siRNA no.	TNF reporter z-score, mean	gene median z, three same-vendor siRNAs	TNF reporter z-score, repeat 1	TNF reporter z-score, repeat 2	outcome
Hfe (homeostatic iron regulator)	4	4.46	0.119	8.67	0.249	active
Hfe (homeostatic iron regulator)	5	-0.138	0.119	1.19	-1.47	inactive
Hfe (homeostatic iron regulator)	6	-0.885	0.119	-1.76	-0.0123	inactive
Hfe (homeostatic iron regulator)	2	-3.52	-3.3	-3.63	-3.4	active
Hfe (homeostatic iron regulator)	3	-3.81	-3.3	-3.2	-4.42	active
Gm10283 (predicted gene 10283)	1	-0.371	-3.85	-3.19	2.45	inactive
Gm10283 (predicted gene 10283)	2	-3.85	-3.85	-3.53	-4.18	active

The list goes on:
no.	target	siRNA no.	TNF reporter z-score, mean	gene median z, three same-vendor siRNAs	TNF reporter z-score, repeat 1	TNF reporter z-score, repeat 2	outcome
31	Prdx2 (peroxiredoxin 2)	1	0.746	-0.336	-0.218	1.71	inactive
32	Prdx2 (peroxiredoxin 2)	2	-0.547	-0.336	-0.219	-0.874	inactive
33	Prdx2 (peroxiredoxin 2)	3	-1.87	-0.336	-0.452	-3.29	inactive
34	Prdx2 (peroxiredoxin 2)	4	-0.0966	-1.18	0.767	-0.96	inactive
35	Prdx2 (peroxiredoxin 2)	5	-1.52	-1.18	-1.39	-1.64	inactive
36	Prdx2 (peroxiredoxin 2)	6	-2.05	-1.18	-0.699	-3.41	active
37	Gpd1l (glycerol-3-phosphate dehydrogenase 1-like)	1	-3.64	-4.14	-3.63	-3.64	active
38	Gpd1l (glycerol-3-phosphate dehydrogenase 1-like)	2	-4.14	-4.14	-4.18	-4.09	active
39	Gpd1l (glycerol-3-phosphate dehydrogenase 1-like)	3	-5.12	-4.14	-4.8	-5.45	active
40	Gpd1l (glycerol-3-phosphate dehydrogenase 1-like)	4	4.85	1.07	9.14	0.567	active
41	Gpd1l (glycerol-3-phosphate dehydrogenase 1-like)	5	0.566	1.07	1.58	-0.449	inactive
42	Gpd1l (glycerol-3-phosphate dehydrogenase 1-like)	6	0.42	1.07	3.49	-2.65	inactive
43	Cck (cholecystokinin)	1	-0.707	-4.01	-1.98	0.564	inactive
44	Cck (cholecystokinin)	2	-4.82	-4.01	-3.27	-6.37	active
45	Cck (cholecystokinin)	3	-5.2	-4.01	-4.75	-5.65	active
46	Cck (cholecystokinin)	4	0.368	-0.491	0.915	-0.18	inactive
47	Cck (cholecystokinin)	5	0.0075	-0.491	0.818	-0.803	inactive
48	Cck (cholecystokinin)	6	-1.87	-0.491	-0.966	-2.78	inactive
49	Ybey (ybeY metallopeptidase)	1	-2.26	-3.64	-3.19	-1.32	active
50	Ybey (ybeY metallopeptidase)	2	-3.63	-3.64	-3.17	-4.09	active
51	Ybey (ybeY metallopeptidase)	3	-4.52	-3.64	-4.48	-4.55	active
52	Ybey (ybeY metallopeptidase)	4	7.24	3.73	12.3	2.16	active
53	Ybey (ybeY metallopeptidase)	5	6.05	3.73	10.4	1.72	active
54	Ybey (ybeY metallopeptidase)	6	3.2	3.73	5.31	1.1	active
55	Mtbp (MDM2 binding protein)	1	-2.05	-2.58	-2.01	-2.09	active
56	Mtbp (MDM2 binding protein)	2	-2.58	-2.58	-2.94	-2.22	active
57	Mtbp (MDM2 binding protein)	3	-4.02	-2.58	-3.61	-4.42	active
58	Mtbp (MDM2 binding protein)	4	4.51	1.29	7.85	1.16	active
59	Mtbp (MDM2 binding protein)	5	2.36	1.29	4.52	0.208	active
60	Mtbp (MDM2 binding protein)	6	-0.511	1.29	1.42	-2.44	inactive
61	Alpl (alkaline phosphatase, liver/bone/kidney)	1	0.751	-0.488	0.72	0.781	inactive
62	Alpl (alkaline phosphatase, liver/bone/kidney)	2	-0.488	-0.488	-0.437	-0.539	inactive
63	Alpl (alkaline phosphatase, liver/bone/kidney)	3	-3.3	-0.488	-4.02	-2.59	active
64	Alpl (alkaline phosphatase, liver/bone/kidney)	4	2.93	1.7	4.38	1.48	active
65	Alpl (alkaline phosphatase, liver/bone/kidney)	5	1.21	1.7	1.92	0.502	inactive
66	Alpl (alkaline phosphatase, liver/bone/kidney)	6	1.8	1.7	3.93	-0.326	inactive
67	Hmga1 (high mobility group AT-hook 1)	1	-1.9	-2.81	-1.77	-2.04	inactive
68	Hmga1 (high mobility group AT-hook 1)	2	-2.81	-2.81	-2.76	-2.86	active
69	Hmga1 (high mobility group AT-hook 1)	3	-5.42	-2.81	-4.89	-5.94	active
70	Hmga1 (high mobility group AT-hook 1)	4	2.23	1.27	4.19	0.26	active
71	Hmga1 (high mobility group AT-hook 1)	5	1.45	1.27	2.23	0.675	inactive
72	Hmga1 (high mobility group AT-hook 1)	6	1.2	1.27	1.86	0.536	inactive
73	Rpl5 (ribosomal protein L5)	1	-2.2	-4.49	-1.99	-2.42	active
74	Rpl5 (ribosomal protein L5)	2	-4.49	-4.49	-4.36	-4.63	active
75	Rpl5 (ribosomal protein L5)	3	-5.1	-4.49	-5.33	-4.86	active
76	Rpl5 (ribosomal protein L5)	4	-2.03	-3.05	-1.36	-2.71	active
77	Rpl5 (ribosomal protein L5)	5	-2.62	-3.05	-1.82	-3.42	active
78	Rpl5 (ribosomal protein L5)	6	-3.46	-3.05	-3.4	-3.52	active
